These are yes or no findings as the source states them, for the method shown. Binding seen in cells or lysates may run through a third protein. Some entries that bind do so weakly or less than the wild type.
Target: V5-RORγ (RAR-related orphan receptor gamma) (human) (UniProt P51449)
Assay: co-IP; nuclear extracts of C4-2B cells expressing V5-RORγ; anti-V5 or control IgG antibody-coated magnetic beads, 4 °C overnight; washed 5 times with 50 mM Tris-HCl pH7.5, 200 mM NaCl, 5 mM EDTA, 1% Triton; Western blotting with anti-PBK or RORγ antibody

Amino acid sequences for entries named in this document (tags omitted).
UniProt P51449: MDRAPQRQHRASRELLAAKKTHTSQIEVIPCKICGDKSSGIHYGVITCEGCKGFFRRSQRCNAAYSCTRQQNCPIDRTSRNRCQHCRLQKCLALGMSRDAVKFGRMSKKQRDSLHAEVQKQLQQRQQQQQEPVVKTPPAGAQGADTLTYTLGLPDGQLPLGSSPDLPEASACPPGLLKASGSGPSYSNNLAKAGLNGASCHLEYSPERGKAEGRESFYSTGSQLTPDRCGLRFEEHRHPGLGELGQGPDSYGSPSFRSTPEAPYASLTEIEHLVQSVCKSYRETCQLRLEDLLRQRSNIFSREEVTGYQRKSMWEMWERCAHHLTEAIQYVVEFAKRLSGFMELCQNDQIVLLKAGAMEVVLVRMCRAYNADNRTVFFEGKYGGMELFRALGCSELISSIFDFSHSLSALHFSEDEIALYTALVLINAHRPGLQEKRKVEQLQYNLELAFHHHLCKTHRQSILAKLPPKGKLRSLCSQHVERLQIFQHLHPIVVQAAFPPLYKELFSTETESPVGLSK

- binding: binds
B1: PDZ binding kinase (PBK) (protein, UniProt Q96KB5 1-322)
chain: MEGISNFKTPSKLSEKKKSVLCSTPTINIPASPFMQKLGFGTGVNVYLMKRSPRGLSHSPWAVKKINPICNDHYRSVYQKRLMDEAKILKSLHHPNIVGYRAFTEANDGSLCLAMEYGGEKSLNDLIEERYKASQDPFPAAIILKVALNMARGLKYLHQEKKLLHGDIKSSNVVIKGDFETIKICDVGVSLPLDENMTVTDPEACYIGTEPWKPKEAVEENGVITDKADIFAFGLTLWEMMTLSIPHINLSNDDDDEDKTFDESDFDDEAYYAALGTRPPINMEELDESYQKVIELFSVCTNEDPKDRPSAAHIVEALETDV

From article PMC8036795
